Data published in paper PMC9260856.
These are yes or no findings as the source states them, for the method shown. In cells and extracts the contact can be indirect. A yes stands for co-enrichment or nearness to the bait. Other partners may have been found. Tags and fused reporters may be left off the sequences shown.

How the values were obtained:
[1] = target: T1, StrepII-FLAG-tagged wild-type FBXO38 (SF-FBXO38 WT), transfected in HEK293T cells (human) (UniProt Q6PIJ6); experiment: affinity purification with mass spectrometry; tandem affinity purification from HEK293T cells co-transfected with SF-tagged and HA-tagged proteins: Strep-Tactin, then HA immunoprecipitation, elution with 3M NaSCN
T1 sequence: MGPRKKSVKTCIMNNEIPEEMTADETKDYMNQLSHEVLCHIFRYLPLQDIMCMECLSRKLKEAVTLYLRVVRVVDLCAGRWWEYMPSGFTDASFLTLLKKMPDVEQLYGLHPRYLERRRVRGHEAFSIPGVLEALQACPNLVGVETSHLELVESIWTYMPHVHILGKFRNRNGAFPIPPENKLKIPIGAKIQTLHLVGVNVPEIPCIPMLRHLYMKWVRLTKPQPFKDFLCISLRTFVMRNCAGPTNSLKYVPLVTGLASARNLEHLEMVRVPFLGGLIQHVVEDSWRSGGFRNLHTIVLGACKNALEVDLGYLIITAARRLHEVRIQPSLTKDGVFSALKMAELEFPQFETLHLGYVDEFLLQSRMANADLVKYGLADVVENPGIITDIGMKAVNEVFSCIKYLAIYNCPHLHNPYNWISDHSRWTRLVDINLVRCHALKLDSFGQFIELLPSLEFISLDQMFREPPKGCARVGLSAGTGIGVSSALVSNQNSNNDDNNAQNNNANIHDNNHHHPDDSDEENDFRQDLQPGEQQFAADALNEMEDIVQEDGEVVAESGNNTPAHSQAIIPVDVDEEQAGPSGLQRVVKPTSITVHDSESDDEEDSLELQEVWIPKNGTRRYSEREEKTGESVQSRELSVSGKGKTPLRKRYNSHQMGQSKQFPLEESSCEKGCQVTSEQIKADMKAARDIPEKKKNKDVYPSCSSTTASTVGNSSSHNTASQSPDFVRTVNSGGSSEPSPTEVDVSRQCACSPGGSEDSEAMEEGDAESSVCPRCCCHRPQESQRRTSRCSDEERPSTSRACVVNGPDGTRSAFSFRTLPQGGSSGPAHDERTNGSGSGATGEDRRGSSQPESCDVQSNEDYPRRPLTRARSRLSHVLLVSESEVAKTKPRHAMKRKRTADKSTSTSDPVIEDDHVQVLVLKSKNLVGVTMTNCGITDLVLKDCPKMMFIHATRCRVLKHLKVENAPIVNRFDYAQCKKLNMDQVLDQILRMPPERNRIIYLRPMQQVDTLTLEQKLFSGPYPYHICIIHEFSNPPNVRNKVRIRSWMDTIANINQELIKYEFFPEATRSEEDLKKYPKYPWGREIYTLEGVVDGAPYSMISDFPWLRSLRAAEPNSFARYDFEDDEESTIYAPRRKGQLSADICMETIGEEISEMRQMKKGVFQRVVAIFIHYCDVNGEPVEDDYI

[2] = target: T2, StrepII-FLAG-tagged ZXDA (SF-ZXDA), transfected in HEK293T cells (human) (UniProt P98168); experiment: affinity purification with mass spectrometry; SF-ZXDA affinity-purified from transiently transfected HEK293T cells, whole-cell lysates prepared with turbonuclease, LC-MS/MS
T2 sequence: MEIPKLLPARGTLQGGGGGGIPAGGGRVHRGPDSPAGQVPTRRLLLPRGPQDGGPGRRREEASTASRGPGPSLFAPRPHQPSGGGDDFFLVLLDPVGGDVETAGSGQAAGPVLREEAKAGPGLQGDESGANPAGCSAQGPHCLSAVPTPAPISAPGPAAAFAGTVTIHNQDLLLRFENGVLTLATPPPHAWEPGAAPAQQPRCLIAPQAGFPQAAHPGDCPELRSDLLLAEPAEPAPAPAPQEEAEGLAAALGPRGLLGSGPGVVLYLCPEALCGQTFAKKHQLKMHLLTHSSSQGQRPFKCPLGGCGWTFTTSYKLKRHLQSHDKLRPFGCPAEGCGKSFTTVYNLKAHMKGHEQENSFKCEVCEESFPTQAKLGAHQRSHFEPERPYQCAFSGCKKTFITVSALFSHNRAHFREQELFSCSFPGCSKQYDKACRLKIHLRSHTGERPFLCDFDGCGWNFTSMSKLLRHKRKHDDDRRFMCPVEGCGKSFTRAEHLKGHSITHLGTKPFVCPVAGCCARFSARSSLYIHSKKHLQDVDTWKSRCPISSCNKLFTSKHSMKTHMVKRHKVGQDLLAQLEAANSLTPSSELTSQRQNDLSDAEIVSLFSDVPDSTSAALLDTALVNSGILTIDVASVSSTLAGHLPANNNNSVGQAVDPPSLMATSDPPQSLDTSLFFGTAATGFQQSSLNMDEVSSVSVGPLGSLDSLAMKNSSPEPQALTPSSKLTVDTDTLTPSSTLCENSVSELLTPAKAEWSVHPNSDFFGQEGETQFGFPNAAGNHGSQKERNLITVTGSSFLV

| Binder | binding [1] | binding [2] |
| --- | --- | --- |
| HA-tagged full-length (FL) ZXDA, transfected in HEK293T cells (protein, UniProt P98168 1-799) MEIPKLLPARGTLQGGGGGGIPAGGGRVHRGPDSPAGQVPTRRLLLPRGPQDGGPGRRREEASTASRGPGPSLFAPRPHQPSGGGDDFFLVLLDPVGGDVETAGSGQAAGPVLREEAKAGPGLQGDESGANPAGCSAQGPHCLSAVPTPAPISAPGPAAAFAGTVTIHNQDLLLRFENGVLTLATPPPHAWEPGAAPAQQPRCLIAPQAGFPQAAHPGDCPELRSDLLLAEPAEPAPAPAPQEEAEGLAAALGPRGLLGSGPGVVLYLCPEALCGQTFAKKHQLKMHLLTHSSSQGQRPFKCPLGGCGWTFTTSYKLKRHLQSHDKLRPFGCPAEGCGKSFTTVYNLKAHMKGHEQENSFKCEVCEESFPTQAKLGAHQRSHFEPERPYQCAFSGCKKTFITVSALFSHNRAHFREQELFSCSFPGCSKQYDKACRLKIHLRSHTGERPFLCDFDGCGWNFTSMSKLLRHKRKHDDDRRFMCPVEGCGKSFTRAEHLKGHSITHLGTKPFVCPVAGCCARFSARSSLYIHSKKHLQDVDTWKSRCPISSCNKLFTSKHSMKTHMVKRHKVGQDLLAQLEAANSLTPSSELTSQRQNDLSDAEIVSLFSDVPDSTSAALLDTALVNSGILTIDVASVSSTLAGHLPANNNNSVGQAVDPPSLMATSDPPQSLDTSLFFGTAATGFQQSSLNMDEVSSVSVGPLGSLDSLAMKNSSPEPQALTPSSKLTVDTDTLTPSSTLCENSVSELLTPAKAEWSVHPNSDFFGQEGETQFGFPNAAGNHGSQKERNLITVTGSSFLV | binds |  |
| centromere protein B (CENP-B), endogenous in HEK293T cells (protein, UniProt P07199 1-599) MGPKRRQLTFREKSRIIQEVEENPDLRKGEIARRFNIPPSTLSTILKNKRAILASERKYGVASTCRKTNKLSPYDKLEGLLIAWFQQIRAAGLPVKGIILKEKALRIAEELGMDDFTASNGWLDRFRRRHGVVSCSGVARARARNAAPRTPAAPASPAAVPSEGSGGSTTGWRAREEQPPSVAEGYASQDVFSATETSLWYDFLPDQAAGLCGGDGRPRQATQRLSVLLCANADGSEKLPPLVAGKSAKPRAGQAGLPCDYTANSKGGVTTQALAKYLKALDTRMAAESRRVLLLAGRLAAQSLDTSGLRHVQLAFFPPGTVHPLERGVVQQVKGHYRQAMLLKAMAALEGQDPSGLQLGLTEALHFVAAAWQAVEPSDIAACFREAGFGGGPNATITTSLKSEGEEEEEEEEEEEEEEGEGEEEEEEGEEEEEEGGEGEELGEEEEVEEEGDVDSDEEEEEDEESSSEGLEAEDWAQGVVEAGGSFGAYGAQEEAQCPTLHFLEGGEDSDSDSEEEDDEEEDDEDEDDDDDEEDGDEVPVPSFGEAMAYFAMVKRYLTSFPIDDRVQSHILHLEHDLVHVTRKNHARQAGVRGLGHQS |  | binds |
